# Assay results from patent US5854010A, “Bioassay for detecting 2,3,7,8-tetrachlorodibenzo-para-dioxin and TCDD-like compounds and novel recombinant cell line useful therefor” (priority 1997, dated 1998).
# Experiments:
# [1] = test system: 101L cells; conditions: cited from earlier work
# [2] = test system: mouse H1L1.1 cells; assay: Luciferase induction by TCDD in DMSO or serum, 96-well, 4 h; detection limits (FIG. 8); type: cell-based
# Procedure: Specifically, since it is desired to utilize the present bioassay system directly to detect PAHs in samples without the need for solvent extraction and concentration, the dose-dependence of luciferase induction in cells incubated with increasing concentrations of TCDD in serum versus that observed with increasing concentrations of TCDD in DMSO was examined. In other words, the present bioassay system should be advantageously employed directly with a sample of serum from an animal or human, where the sample may contain TCDD or other PAHs and the serum is the solvent, whereby solvent extraction of the sample with DMSO as the solvent is unnecessary.
# The cells were incubated with the respective increasing concentrations of TCDD for 4 hours and luciferase activity of cell lysates determined as follows.
# More particularly, mouse H1L1.1 cells were grown in 10% fetal calf serum (purchased from Atlanta Biologicals) in RPMI 1640 media (purchased from Gibco) in T flasks to near confluence and then harvested with trypsin. The cells were washed in saline containing 10% fetal calf serum, resuspended to a concentration of 1.25×10^6 cells/ml, plated in 100 μl volumes in Dynatech 96-well viewplates, and incubated overnight at 37° C. in a 4.8% humidified atmosphere of CO2.
# Chemical treatment was carried out by direct addition of TCDD-containing serum to these cultures or direct addition of TCDD-containing DMSO (1 μl/100 μl media) to the wells in triplicate followed by plate mixing on a microplate vortexer. The cultures were incubated for 4 hours at 37° C., followed by washing of the cells with saline and addition of 100 μl of cell lysis buffer (25 mM of tris phosphate, pH 7.8, 2 mM of dithiothreitol, 2 mM of 1,2-diaminocyclohexane-N,N,N'N'-tetracetic acid, 10% glycerol, and 1% Triton X-100).
# After incubation for an additional 15 minutes, luciferase activity in the lysed cells was determined. Luciferase activity was sensitively measured using its bioluminescent substrate, luciferin in a Dynatech ML3000 microplate luminometer. In these experiments, cells either kept intact or lysed using luciferase lysis buffer (purchased from Promega) and luciferase activity in an aliquot of the lysate was determined by automatic injection of assay reagent and measurement of the resulting bioluminescence.
smiles,measurement,setting,value
"Clc1cc2c(cc1Cl)Oc1cc(Cl)c(Cl)cc1O2 [TCDD, 2,3,7,8-tetrachlorodibenzo-para-dioxin]",Sensitivity of TCDD per sample,[1]; Table 10 of Anderson et al.,0.05 ng/g
same,Sensitivity of TCDD per sample,[1]; conversion of 0.05 ng/g,"50,000 parts per quadrillion"
same,Sensitivity of the assay of TCDD in DMSO,[2]; TCDD in DMSO,< 1 pg
same,Serum concentration of TCDD above which a significant response over background was observed,"[2]; TCDD in serum, 4 h",above 50 pM
same,Serum concentration of TCDD corresponding to significant response,"[2]; TCDD in serum, corresponds to 50 pM",approximately 16 ppt
same,Lower sensitivity of TCDD in serum than in DMSO,[2]; serum vs DMSO,1-2 orders of magnitude

# Read-outs that look alike come from different tables or passages of the source.
